Test results reported in the supplement of paper PMC11732987, “Enantioselective OTUD7B fragment discovery through chemoproteomics screening and high-throughput optimisation” (Communications Chemistry, 2025).
This is one part of the list. The data scatter; read single values as rough.

The chains behind the UniProt entries cited, without tags or fusion partners. Where a name states a change or a piece, a line headed by the entry shows the natural chain unless it says otherwise. Residues count along the entry.
UniProt Q9UIQ6: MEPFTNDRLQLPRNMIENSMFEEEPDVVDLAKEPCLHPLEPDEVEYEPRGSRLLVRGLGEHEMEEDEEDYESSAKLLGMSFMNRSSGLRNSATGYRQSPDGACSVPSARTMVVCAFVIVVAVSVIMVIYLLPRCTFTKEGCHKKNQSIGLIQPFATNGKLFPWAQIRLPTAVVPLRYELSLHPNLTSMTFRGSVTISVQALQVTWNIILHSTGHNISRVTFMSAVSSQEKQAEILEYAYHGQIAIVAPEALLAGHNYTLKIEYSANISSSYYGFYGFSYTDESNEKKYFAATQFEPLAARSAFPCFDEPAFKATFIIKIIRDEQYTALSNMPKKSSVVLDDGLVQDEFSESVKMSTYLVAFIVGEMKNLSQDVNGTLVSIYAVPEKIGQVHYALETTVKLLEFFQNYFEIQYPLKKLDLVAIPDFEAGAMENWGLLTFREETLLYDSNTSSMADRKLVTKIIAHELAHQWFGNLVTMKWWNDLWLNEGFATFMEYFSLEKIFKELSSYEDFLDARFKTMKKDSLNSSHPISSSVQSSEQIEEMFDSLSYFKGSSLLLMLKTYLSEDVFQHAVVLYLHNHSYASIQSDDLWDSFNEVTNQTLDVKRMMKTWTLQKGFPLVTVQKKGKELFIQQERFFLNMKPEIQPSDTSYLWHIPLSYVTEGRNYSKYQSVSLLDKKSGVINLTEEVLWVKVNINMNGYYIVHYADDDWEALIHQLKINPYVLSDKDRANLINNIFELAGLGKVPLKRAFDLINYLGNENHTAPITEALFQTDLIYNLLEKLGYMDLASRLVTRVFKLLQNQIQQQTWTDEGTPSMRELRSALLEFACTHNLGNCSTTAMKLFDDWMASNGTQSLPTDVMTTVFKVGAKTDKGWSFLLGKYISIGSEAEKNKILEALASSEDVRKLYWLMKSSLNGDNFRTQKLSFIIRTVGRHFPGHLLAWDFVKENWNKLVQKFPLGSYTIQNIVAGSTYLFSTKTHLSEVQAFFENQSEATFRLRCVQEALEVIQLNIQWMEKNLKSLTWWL
UniProt O14686: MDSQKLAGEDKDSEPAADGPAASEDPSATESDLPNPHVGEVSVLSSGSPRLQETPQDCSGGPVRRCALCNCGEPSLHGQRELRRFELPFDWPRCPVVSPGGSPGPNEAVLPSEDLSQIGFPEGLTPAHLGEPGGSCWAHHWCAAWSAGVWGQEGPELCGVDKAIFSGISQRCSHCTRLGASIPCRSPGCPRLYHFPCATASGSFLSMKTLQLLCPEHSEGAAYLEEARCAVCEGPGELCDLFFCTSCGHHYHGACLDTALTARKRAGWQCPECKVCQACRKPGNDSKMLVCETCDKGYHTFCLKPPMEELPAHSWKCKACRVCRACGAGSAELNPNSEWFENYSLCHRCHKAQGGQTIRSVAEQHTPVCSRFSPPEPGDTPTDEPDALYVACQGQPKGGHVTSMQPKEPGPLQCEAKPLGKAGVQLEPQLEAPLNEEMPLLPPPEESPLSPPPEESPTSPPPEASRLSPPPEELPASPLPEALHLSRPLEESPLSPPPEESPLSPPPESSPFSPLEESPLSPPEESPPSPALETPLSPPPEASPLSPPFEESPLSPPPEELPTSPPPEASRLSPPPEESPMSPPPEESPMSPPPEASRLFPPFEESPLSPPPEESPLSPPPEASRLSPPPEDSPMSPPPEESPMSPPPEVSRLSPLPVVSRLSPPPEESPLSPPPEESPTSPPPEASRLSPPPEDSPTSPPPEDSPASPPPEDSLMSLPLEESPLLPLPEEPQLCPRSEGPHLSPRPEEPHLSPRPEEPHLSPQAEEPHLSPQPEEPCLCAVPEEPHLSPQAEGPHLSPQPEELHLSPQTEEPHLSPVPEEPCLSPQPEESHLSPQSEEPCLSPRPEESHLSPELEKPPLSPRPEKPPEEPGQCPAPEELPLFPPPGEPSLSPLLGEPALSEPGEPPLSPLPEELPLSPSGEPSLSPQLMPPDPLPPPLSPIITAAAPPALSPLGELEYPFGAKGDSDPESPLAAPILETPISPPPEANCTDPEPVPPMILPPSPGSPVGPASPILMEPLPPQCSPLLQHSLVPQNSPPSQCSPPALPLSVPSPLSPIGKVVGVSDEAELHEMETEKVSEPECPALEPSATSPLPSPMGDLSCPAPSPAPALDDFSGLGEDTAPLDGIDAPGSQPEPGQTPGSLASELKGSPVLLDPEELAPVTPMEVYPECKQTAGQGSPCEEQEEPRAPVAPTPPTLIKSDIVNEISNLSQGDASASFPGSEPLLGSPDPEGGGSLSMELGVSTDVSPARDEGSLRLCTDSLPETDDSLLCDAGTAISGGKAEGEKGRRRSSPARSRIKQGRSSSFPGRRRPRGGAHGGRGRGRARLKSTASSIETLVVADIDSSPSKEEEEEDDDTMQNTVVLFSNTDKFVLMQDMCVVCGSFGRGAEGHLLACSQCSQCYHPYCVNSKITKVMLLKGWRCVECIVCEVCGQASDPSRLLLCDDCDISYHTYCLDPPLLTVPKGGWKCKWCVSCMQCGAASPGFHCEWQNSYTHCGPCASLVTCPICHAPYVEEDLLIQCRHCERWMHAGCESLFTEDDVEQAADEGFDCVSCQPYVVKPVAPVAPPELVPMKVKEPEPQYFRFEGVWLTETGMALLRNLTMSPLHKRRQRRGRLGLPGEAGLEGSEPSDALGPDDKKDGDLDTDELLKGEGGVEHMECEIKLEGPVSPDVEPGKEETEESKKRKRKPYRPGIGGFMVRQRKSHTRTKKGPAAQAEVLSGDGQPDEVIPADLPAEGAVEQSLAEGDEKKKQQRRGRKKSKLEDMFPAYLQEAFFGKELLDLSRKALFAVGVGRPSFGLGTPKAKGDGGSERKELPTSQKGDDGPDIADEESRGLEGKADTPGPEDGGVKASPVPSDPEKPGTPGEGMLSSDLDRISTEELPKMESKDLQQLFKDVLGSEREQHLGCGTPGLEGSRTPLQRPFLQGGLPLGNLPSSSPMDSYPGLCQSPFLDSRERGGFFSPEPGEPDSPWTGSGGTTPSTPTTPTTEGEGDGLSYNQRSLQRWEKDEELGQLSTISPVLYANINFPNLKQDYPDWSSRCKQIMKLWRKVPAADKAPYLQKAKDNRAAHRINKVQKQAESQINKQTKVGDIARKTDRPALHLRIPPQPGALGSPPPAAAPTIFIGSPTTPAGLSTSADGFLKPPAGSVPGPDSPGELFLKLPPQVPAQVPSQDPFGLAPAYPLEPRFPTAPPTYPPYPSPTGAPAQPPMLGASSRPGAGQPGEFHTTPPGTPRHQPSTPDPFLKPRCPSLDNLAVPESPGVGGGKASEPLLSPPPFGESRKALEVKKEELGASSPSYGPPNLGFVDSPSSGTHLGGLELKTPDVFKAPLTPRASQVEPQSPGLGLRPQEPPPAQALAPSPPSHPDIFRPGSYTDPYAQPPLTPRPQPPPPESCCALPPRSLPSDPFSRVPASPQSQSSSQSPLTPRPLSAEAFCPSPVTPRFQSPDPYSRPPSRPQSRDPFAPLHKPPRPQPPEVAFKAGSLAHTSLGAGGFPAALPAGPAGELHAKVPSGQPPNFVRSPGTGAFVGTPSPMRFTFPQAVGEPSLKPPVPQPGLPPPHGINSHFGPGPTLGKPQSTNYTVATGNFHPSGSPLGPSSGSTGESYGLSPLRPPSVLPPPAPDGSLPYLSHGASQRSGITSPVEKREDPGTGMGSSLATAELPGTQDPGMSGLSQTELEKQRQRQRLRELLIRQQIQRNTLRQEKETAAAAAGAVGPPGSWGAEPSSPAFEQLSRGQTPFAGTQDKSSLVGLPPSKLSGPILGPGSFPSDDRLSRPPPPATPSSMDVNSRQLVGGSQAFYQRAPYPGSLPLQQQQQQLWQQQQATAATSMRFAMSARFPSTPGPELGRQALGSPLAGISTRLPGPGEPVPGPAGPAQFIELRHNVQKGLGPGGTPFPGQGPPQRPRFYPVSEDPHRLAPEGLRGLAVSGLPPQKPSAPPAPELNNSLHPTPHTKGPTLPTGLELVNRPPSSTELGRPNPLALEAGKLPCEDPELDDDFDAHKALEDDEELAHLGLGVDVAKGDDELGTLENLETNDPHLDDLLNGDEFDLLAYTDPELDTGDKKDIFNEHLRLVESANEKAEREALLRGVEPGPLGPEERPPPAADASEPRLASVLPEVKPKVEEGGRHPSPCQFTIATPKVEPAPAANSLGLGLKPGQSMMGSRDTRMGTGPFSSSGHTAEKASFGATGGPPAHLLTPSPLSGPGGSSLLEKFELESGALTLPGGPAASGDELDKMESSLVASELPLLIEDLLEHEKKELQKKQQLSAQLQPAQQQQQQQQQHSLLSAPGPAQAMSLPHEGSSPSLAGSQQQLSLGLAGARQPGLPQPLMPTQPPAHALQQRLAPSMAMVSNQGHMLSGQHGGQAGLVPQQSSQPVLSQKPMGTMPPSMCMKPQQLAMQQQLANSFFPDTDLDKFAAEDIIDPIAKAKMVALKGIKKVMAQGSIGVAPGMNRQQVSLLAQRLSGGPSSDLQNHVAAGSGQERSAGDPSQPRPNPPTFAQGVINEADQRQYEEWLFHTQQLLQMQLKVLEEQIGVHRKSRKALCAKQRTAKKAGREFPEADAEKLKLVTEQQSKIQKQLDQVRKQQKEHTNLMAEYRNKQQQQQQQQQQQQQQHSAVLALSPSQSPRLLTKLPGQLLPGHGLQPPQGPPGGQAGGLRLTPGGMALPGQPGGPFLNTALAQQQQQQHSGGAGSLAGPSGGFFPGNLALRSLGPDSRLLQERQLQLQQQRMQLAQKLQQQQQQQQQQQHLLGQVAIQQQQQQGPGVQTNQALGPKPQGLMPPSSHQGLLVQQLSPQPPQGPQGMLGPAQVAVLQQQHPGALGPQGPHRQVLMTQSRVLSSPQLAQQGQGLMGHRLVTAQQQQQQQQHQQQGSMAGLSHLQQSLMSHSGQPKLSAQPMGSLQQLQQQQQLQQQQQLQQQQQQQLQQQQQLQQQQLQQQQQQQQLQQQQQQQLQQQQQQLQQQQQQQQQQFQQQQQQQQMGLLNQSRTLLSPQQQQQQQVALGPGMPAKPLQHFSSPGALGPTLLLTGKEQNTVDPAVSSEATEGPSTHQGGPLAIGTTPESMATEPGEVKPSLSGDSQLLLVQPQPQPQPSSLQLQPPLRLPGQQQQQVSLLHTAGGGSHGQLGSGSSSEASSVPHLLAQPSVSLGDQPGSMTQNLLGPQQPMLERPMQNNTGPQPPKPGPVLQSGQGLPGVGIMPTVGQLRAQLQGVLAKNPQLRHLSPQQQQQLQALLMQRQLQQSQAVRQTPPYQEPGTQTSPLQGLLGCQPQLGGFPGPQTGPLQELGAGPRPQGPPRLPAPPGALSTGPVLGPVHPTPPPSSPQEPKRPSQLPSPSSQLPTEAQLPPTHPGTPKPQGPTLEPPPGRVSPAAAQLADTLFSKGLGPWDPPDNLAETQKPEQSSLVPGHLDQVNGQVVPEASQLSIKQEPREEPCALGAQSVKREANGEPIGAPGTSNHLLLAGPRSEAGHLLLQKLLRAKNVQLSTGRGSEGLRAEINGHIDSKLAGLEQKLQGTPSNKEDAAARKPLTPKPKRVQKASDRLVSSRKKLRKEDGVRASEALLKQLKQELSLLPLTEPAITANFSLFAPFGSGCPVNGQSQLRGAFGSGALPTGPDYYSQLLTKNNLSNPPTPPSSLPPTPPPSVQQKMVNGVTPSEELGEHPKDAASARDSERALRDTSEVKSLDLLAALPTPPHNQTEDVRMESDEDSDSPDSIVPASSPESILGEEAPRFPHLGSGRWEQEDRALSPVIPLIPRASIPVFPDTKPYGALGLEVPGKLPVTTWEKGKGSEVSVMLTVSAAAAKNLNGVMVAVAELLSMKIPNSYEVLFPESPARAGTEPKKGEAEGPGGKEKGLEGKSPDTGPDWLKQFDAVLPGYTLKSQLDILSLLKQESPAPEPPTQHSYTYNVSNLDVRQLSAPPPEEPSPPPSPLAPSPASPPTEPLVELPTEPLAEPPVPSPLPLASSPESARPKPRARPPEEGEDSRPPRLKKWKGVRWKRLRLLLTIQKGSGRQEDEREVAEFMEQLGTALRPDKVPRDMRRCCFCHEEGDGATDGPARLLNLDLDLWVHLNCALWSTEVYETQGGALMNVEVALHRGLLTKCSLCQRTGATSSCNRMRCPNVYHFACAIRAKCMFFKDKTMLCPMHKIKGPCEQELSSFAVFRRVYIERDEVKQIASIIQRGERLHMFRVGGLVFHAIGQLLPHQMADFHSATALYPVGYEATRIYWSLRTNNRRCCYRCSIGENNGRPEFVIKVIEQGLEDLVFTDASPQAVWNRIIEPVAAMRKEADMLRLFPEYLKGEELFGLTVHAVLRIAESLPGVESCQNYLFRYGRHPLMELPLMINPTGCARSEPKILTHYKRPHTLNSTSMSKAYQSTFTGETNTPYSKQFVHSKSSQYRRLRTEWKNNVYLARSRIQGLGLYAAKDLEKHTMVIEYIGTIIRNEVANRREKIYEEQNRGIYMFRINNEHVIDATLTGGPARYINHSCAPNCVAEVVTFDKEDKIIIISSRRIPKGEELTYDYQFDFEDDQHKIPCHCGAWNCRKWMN
UniProt Q8NF37, 427-446: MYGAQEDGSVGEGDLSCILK

Compound: ClCC(=O)N[C@H]1CCCc2ccccc12
Assay: log2 mean competition ratio of IA-DTB cysteine labelling (DMSO/compound) (log2 ratio); higher = stronger cysteine engagement by compound
Settings: 50 µM; treatment time: 4 h; cell line lysate: HEK293T
Description: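 IA-DTB competitive cysteine chemoproteomics in HEK293T RIPA lysate. Lysates were treated with compound 29 or 30 at 50 or 200 µM for 4 h, then IA-DTB (500 µM, 1 h), trypsin-digested, NeutrAvidin-enriched and analysed by diaPASEF. Competition ratio = intensity DMSO / intensity compound (n=4 treated, n=64 DMSO); binding: mean log2 CR ≥ 1 and p ≤ 0.05 plus QC filters. Target is the cysteine site.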

Target | log2 mean competition ratio
LGALS1 C61 (UniProt P09382) | 0.0622
LIG3 C729 (UniProt P49916) | 0.209
LEMD3 C814 (UniProt Q9Y2U8) | -0.7
LNPEP C103 (UniProt Q9UIQ6) | -0.258
KMT2D C4424 (UniProt O14686) | 0.316
LIMS1 C138 (UniProt P48059) | 0.157
LNPEP C305 (UniProt Q9UIQ6) | 0.0212
KMT2C C473 (UniProt Q8NEZ4) | 0.293
LRCH2 C730 | -0.428
LPCAT1 C443 (UniProt Q8NF37) | -0.243
KIT C691 (UniProt P10721) | -0.424
KIN C212 (UniProt O60870) | 0.00762
LGMN C219 (UniProt Q99538) | 0.0226
LRP1 C2837 (UniProt Q07954) | 0.129
LRBA C1228 | -0.32
KNL1 C1529 (UniProt Q8NG31) | -0.0613
LAS1L C169 (UniProt Q9Y4W2) | 0.366
KNTC1 C1107 (UniProt P50748) | -0.15
KIF7 C1065 | -0.0943
KMT2B C2540 (UniProt Q9UMN6) | 0.978

Same assay, conditions: 200 µM; treatment time: 4 h; cell line lysate: HEK293T

Target | log2 mean competition ratio
LGALS1 C61 (UniProt P09382) | -0.646
LIG3 C729 (UniProt P49916) | 0.0866
LEMD3 C814 (UniProt Q9Y2U8) | -0.222
LNPEP C103 (UniProt Q9UIQ6) | 0.268
KMT2D C4424 (UniProt O14686) | -0.264
LIMS1 C138 (UniProt P48059) | -0.0327
LNPEP C305 (UniProt Q9UIQ6) | -0.309
KMT2C C473 (UniProt Q8NEZ4) | -0.0752
LRCH2 C730 | 0.196
LPCAT1 C443 (UniProt Q8NF37) | -0.124
KIT C691 (UniProt P10721) | 0.0969
KIN C212 (UniProt O60870) | -0.212
LGMN C219 (UniProt Q99538) | -0.18
LRP1 C2837 (UniProt Q07954) | 0.371
LRBA C1228 | -0.294
KNL1 C1529 (UniProt Q8NG31) | 0.224
LAS1L C169 (UniProt Q9Y4W2) | 0.103
KNTC1 C1107 (UniProt P50748) | -0.0189
KIF7 C1065 | -0.0689
KMT2B C2540 (UniProt Q9UMN6) | -0.127
